Measured values taken from the supplement of paper PMC6078165.
Values are relative to the signal before dosing, not to a vehicle control; the signal also falls without drug.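 Fibroblast labels name human fibroblasts: mostly primary ones from tissues such as uterus (C12385, HUF), lung (H6013), bone (Hs27A), adrenal (HADF) and skin (WS1), plus mammary HMF and breast cancer-associated Hs343T. The cancer cells are basal-like or mesenchymal-like triple-negative breast cancer lines. The paper calls a changed response a hit when it shifts by more than 3x the replicate standard deviation. The tissue of the other fibroblasts is not given here.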

Tested on: BT20
Test: relative JC-1 red fluorescence (viability) vs pre-drug, coculture with fibroblast (fraction); higher = more viable cancer cells
Conditions: 100 µM
Description: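 JC-1 labelled TNBC cells cocultured 1:1 (1,500 cells each) with CellTrace Violet stained primary or stromal fibroblasts in 384-well plates in FluoroBrite medium, treated with one of 42 anticancer drugs at 0.1, 1, 10 or 100 uM. JC-1 red fluorescence (mitochondrial integrity in cancer cells only) was read by plate reader every 8 h for 72 h. Values are normalised to each well's pre-drug value. The stock of one drug was tenfold lower, so its dose labels may be too high.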

Nc1ccn([C@@H]2O[C@H](CO)[C@@H](O)C2(F)F)c(=O)n1 [Gemcitabine]
relative JC-1 red fluorescence
Conditions	8 h	16 h	24 h	32 h	40 h	48 h	56 h	64 h	72 h
coculture fibroblast: C12385	0.8811	0.788	0.727	0.672	0.623	0.602	0.572	0.535	0.513
coculture fibroblast: H6013	0.949	0.891	0.83	0.762	0.699	0.678	0.669	0.65	0.641
coculture fibroblast: H6019	0.856	0.775	0.739	0.668	0.623	0.608	0.574	0.55	0.533
coculture fibroblast: H6076	0.96107	0.853	0.8023	0.7758	0.76	0.729	0.723	0.739	0.716
coculture fibroblast: H6231	0.775	0.929	0.793	0.722	0.68	0.632	0.588	0.563	0.533
coculture fibroblast: HADF	0.968	0.8761	0.873	0.841	0.832	0.807	0.804	0.792	0.771
coculture fibroblast: HCFa	0.9719	0.888	0.842	0.802	0.74	0.71	0.684	0.666	0.64
coculture fibroblast: HCPF	0.776	0.938	0.856	0.8046	0.764	0.721	0.679	0.647	0.602
coculture fibroblast: HHSteC	0.918	0.82	0.781	0.705	0.645	0.615	0.581	0.55	0.519
coculture fibroblast: HMF	0.976	0.8769	0.7808	0.722	0.6832	0.6394	0.601	0.5673	0.531
coculture fibroblast: HPFa	0.9492	0.861	0.856	0.769	0.757	0.727	0.72	0.706	0.674
coculture fibroblast: HUF	0.8916	0.7971	0.75619	0.674	0.617	0.57	0.548	0.526	0.513
coculture fibroblast: Hs5	0.927	0.9	0.8277	0.7774	0.743	0.7117	0.686	0.661	0.633
coculture fibroblast: Hs27A	0.864	0.724	0.877	0.884	0.837	0.816	0.7925	0.769	0.737
coculture fibroblast: Hs343T	0.893	0.876	0.79	0.717	0.664	0.616	0.5646	0.534	0.497
coculture fibroblast: WS1	0.879	0.794	0.7569	0.674	0.619	0.591	0.559	0.529	0.514
